{
  "sequences": {"note": "By UniProt entry, the sequences of proteins in these tests, tags left out. Residues count along the entry.", "UniProt P52480": "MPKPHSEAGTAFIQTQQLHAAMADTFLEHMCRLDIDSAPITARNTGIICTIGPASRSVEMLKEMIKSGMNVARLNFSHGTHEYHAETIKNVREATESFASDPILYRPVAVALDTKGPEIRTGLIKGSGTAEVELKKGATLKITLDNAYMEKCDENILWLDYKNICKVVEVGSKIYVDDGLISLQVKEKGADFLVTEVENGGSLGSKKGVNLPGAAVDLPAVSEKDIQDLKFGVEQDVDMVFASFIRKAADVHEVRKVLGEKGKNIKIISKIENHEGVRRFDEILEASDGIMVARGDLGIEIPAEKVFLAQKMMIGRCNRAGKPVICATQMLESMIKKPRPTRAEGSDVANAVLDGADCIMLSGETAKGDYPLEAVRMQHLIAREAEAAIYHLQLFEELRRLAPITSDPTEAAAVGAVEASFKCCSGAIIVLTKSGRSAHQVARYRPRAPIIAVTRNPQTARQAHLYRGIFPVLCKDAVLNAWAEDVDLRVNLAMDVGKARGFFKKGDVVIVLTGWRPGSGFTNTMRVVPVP", "UniProt Q9Z2W9, residues 23-888": "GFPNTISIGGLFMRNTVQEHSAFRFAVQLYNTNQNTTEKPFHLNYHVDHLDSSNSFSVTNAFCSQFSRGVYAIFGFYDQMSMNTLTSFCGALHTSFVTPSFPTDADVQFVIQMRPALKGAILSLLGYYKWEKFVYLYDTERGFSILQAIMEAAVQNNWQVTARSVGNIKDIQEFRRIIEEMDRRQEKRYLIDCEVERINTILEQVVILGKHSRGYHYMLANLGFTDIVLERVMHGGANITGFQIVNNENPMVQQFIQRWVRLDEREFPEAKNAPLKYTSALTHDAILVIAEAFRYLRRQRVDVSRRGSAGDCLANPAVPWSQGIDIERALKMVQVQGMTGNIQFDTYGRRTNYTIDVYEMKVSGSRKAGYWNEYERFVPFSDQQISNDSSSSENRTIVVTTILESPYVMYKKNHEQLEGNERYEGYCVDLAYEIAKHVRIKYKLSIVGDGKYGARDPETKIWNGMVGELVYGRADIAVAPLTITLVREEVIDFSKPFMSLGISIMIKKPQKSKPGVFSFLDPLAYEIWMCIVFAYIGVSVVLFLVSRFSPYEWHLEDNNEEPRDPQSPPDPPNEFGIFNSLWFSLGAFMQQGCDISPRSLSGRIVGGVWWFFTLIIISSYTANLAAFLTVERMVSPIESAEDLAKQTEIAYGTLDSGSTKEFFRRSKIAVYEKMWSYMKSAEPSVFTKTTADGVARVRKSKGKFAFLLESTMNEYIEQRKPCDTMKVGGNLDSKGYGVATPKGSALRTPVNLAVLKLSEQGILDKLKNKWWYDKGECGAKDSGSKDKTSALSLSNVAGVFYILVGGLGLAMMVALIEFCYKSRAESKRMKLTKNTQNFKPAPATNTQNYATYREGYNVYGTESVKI", "UniProt Q01097, residues 27-1482": "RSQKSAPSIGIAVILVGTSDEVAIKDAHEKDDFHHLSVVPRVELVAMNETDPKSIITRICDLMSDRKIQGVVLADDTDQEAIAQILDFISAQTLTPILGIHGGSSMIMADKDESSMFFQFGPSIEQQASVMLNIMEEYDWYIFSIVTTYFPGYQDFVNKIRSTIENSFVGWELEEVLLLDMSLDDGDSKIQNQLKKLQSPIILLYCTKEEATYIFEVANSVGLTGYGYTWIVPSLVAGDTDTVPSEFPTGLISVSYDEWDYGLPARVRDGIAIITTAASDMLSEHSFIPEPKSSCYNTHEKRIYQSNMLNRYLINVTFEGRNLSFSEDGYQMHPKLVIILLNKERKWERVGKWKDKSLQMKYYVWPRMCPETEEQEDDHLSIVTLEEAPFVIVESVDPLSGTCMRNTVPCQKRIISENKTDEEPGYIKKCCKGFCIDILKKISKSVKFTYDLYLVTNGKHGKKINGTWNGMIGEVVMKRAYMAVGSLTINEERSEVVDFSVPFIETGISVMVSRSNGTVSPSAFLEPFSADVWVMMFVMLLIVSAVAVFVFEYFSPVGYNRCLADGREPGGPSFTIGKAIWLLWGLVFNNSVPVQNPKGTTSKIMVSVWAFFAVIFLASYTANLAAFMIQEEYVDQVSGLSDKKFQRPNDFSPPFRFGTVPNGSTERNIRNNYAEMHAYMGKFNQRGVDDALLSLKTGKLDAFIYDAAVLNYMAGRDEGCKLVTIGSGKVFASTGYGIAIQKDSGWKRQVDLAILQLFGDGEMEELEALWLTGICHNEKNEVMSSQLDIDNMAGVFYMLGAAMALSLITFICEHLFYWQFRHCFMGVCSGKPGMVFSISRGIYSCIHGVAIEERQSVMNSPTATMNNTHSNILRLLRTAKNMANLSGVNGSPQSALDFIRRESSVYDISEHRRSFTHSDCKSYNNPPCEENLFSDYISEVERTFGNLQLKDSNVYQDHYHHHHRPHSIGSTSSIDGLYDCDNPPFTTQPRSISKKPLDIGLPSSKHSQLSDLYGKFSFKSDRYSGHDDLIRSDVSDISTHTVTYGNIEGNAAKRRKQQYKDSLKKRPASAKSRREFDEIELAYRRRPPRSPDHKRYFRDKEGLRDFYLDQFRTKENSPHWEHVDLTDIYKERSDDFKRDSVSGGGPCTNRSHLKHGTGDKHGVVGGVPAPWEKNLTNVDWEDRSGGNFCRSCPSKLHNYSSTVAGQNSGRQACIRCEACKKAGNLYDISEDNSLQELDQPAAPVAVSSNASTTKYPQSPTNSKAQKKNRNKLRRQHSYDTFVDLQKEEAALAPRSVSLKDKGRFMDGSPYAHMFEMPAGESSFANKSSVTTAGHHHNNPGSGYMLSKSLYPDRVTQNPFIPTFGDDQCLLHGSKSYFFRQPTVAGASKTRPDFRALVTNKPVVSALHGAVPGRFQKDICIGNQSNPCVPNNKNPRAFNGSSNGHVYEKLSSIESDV"},
  "source": "paper PMC11333582",
  "molecular_target": "Pkm2 (mouse (endogenous in mPFC)) (UniProt P52480)",
  "assay": "affinity purification with mass spectrometry; immunoprecipitation with anti-Pkm2 antibody (1:50, overnight) from PSD extracts of mouse mPFC (methods: cerebral cortex in RIPA lysis buffer); rabbit IgG as negative IP control; SDS-PAGE bands cut, LC-MS (Q Exactive Plus, MaxQuant)",
  "note": "No constants are given. Whether binding was seen depends on the method and setting. Binding seen in cells or lysates may run through a third protein. These calls come from enrichment with a bait or labelling near it, and not all partners need be listed.",
  "data": [
    {"substance": "GluA3 (from UniProt Q9Z2W9 23-888) (receptor)", "values": [
      {"measurement": "binding", "result": "binds"}
    ]},
    {"substance": "Nr2b (from UniProt Q01097 27-1482) (receptor)", "values": [
      {"measurement": "binding", "result": "binds"}
    ]}
  ]
}
